At least one compound was matched to its structure with a doubt left.
Molecular target: α-Glucosidase (EC 3.2.1.20)
Settings: read-out: IC50 values ± SEM against α-glucosidase enzyme; pH 6.9, 37° C., 0.5 μM p-nitrophenyl α-D-glucopyranoside substrate, 250 units/mL enzyme, 50 mM sodium phosphate buffer with 100 mM NaCl

COC(=O)c1c(C)cc(O)c(C)c1O [Methyl β-orcinol carboxylate, 2,4-dihydroxy-3,6-dimethylbenzoate]
IC50: 140 ± 0.6 µM

From patent US7867989B2, “α-glucosidase inhibitors from lichens” (priority 2007, dated 2011)
